# Where “and” joins values, the source holds several entries; their conditions need not be identical. Equal entries are not always repeated. Inconclusive results, whose numbers are uncertain, are shown with a selection of clear calls. For part of these data: A potency beside an inconclusive call is a rough fit, not a confirmed value. Calls of active or inactive are those of the source. The calls were made as follows, unless noted: active = hit-call score of the fitted dose curve at least 0.9, where 1 is the maximum; inconclusive = response in the unintended direction; inactive = score below 0.9.
# Chains of the proteins cited; added tags and fusions are not shown. Lines headed by an entry give the natural chain unless they say otherwise; changes in a name come on top.
# UniProt P37238, whole entry, looked up: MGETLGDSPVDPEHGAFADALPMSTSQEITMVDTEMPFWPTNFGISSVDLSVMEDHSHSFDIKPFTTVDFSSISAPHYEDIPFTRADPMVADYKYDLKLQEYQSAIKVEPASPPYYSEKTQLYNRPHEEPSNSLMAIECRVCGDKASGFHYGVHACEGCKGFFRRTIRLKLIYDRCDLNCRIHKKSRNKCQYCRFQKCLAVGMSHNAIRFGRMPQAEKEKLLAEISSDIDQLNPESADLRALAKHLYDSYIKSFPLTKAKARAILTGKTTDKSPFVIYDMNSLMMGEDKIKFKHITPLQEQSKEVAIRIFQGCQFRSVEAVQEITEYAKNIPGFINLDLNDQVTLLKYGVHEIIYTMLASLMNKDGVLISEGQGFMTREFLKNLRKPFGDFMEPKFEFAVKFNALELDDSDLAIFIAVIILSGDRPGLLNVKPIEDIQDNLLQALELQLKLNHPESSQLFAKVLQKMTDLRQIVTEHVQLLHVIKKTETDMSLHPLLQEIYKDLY
# UniProt Q98867: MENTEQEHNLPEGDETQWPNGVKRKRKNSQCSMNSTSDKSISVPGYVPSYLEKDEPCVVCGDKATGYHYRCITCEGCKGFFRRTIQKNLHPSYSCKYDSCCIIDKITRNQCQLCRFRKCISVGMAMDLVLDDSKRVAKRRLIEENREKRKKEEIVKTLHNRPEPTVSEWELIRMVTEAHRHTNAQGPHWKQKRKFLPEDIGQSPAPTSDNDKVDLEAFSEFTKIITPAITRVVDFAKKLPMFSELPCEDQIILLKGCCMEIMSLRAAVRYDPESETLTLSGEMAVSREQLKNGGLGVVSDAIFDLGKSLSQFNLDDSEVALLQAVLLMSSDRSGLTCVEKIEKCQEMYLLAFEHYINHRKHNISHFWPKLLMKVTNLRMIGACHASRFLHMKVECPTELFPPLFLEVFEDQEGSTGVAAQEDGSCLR
# UniProt P10827: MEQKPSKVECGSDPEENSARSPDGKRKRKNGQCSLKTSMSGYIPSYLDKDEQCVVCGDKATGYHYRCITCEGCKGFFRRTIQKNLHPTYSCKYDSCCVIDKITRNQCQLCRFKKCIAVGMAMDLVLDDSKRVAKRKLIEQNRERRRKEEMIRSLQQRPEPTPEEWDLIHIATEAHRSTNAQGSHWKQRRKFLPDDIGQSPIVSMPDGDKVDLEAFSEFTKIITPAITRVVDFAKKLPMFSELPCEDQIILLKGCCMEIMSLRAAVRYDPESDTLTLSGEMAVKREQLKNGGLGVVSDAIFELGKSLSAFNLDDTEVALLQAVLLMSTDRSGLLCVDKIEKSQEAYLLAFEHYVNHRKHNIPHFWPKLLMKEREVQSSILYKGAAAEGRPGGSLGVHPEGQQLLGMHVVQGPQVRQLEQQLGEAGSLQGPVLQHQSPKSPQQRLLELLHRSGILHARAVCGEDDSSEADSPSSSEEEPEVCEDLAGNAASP
# UniProt P15204: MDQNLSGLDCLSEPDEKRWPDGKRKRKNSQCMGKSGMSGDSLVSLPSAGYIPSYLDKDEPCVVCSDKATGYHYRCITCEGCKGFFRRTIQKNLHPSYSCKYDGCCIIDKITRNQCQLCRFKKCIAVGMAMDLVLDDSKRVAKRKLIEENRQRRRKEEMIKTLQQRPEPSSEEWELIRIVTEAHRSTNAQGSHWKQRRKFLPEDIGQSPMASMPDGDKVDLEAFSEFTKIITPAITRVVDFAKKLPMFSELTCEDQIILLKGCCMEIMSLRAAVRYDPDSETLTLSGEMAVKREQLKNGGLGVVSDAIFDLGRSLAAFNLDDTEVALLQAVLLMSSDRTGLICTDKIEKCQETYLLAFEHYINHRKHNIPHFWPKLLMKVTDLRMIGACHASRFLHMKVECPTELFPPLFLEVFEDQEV
# UniProt P10828: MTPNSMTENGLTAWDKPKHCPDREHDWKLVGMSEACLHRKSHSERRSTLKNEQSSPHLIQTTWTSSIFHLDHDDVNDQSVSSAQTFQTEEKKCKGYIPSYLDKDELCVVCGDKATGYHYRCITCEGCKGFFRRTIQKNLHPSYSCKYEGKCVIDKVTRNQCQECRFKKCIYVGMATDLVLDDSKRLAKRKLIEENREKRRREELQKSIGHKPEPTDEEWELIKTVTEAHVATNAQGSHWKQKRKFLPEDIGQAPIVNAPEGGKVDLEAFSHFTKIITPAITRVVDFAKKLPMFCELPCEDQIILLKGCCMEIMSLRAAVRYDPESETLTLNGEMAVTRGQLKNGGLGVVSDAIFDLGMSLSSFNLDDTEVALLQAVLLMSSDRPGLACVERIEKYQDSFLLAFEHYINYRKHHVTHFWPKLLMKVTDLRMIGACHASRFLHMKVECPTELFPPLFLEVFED
# UniProt P06401: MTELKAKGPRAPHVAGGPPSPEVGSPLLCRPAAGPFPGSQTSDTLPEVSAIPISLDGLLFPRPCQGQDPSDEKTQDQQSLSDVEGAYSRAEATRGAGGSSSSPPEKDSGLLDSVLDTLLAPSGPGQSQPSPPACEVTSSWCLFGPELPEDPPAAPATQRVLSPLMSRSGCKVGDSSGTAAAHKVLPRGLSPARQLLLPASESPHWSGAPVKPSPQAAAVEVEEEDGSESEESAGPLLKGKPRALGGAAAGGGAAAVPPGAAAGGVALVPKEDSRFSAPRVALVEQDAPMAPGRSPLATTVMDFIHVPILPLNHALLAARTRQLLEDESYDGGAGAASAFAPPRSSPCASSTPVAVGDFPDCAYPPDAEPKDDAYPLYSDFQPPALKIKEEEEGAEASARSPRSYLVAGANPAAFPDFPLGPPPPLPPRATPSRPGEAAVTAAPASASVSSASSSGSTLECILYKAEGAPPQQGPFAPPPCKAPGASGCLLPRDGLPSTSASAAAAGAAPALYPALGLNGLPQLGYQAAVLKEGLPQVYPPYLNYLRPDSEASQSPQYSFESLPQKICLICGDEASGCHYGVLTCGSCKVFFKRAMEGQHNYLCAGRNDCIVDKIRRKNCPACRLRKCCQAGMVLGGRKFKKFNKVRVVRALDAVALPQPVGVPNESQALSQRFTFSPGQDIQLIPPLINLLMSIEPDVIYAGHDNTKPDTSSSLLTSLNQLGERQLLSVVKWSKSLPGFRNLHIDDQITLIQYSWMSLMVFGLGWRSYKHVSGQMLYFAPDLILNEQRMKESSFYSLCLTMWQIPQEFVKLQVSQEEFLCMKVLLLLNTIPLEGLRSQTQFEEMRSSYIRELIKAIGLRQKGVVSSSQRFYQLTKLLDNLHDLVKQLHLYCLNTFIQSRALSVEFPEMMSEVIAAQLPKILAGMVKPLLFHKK
# Columns and labels:
# [1] = target: mouse Peroxisome Proliferator-activated Receptor gamma (PPARg), Pparg (gene 19016) (UniProt P37238); experiment: ATG_mPPARg_XSP2: Attagene TRANS-FACTORIAL Multi-Species (XSP2) HepG2 Assay for mouse Peroxisome Proliferator-activated Receptor gamma (PPARg) (AID 2283830);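 also: hits are gains in reporter mRNA above DMSO so AC50 marks activation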
# Method in brief: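 HepG2 cells transiently transfected with GAL4-UAS reporter units for chimeric NR-Gal4 proteins including mouse PPARg, exposed 24 h; medium contained 3 nM 6-alpha-fluorotestosterone and 1.5 nM norgestrel. Reporter mRNA quantified by RT-PCR, HpaI digestion and capillary electrophoresis, vs DMSO.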
# [2] = target: Nuclear receptor subfamily 1 group I member 2 (Mus musculus) (UniProt O54915); experiment: ATG_mPXR_XSP2: Attagene TRANS-FACTORIAL Multi-Species (XSP1) HepG2 Assay for mouse Pregnane X Receptor (PXR) (AID 2283831)
# Method in brief: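 Human liver HepG2 cells expressing exogenous receptor-GAL4 chimeras were exposed to test chemicals for 24 h. Induction of reporter mRNA was scored as gain of fluorescence signal over DMSO controls.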
# [3] = target: zebrafish Thyroid Hormone Receptor alpha (TRa), thraa (gene 30670) (UniProt Q98867); experiment: ATG_zfTRa_XSP2: Attagene TRANS-FACTORIAL Multi-Species (XSP1) HepG2 Assay for zebrafish Thyroid Hormone Receptor alpha (TRa) (AID 2283832);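 also: actives raise zebrafish TRa-Gal4 reporter transcript above DMSO baseline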
# Method in brief: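 Transient transfection of human HepG2 with GAL4-UAS reporter units, then 24 h chemical treatment. RNA isolated, reverse-transcribed, PCR-amplified, FAM-labelled, HpaI-digested and run on capillary electrophoresis. Gain-of-signal relative to DMSO.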
# [4] = system: zebrafish Peroxisome Proliferator-activated Receptor gamma (PPARg), gene 557037; experiment: ATG_zfPPARg_XSP2: Attagene TRANS-FACTORIAL Multi-Species (XSP2) HepG2 Assay for zebrafish Peroxisome Proliferator-activated Receptor gamma (PPARg) (AID 2283833);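 also: reporter mRNA from a zebrafish PPARg GAL4 chimera measured by RT-PCR and capillary electrophoresis; actives increase reporter signal over DMSO so AC50 reflects activation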
# Method in brief: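 Cell-based transactivation of a chimeric zebrafish PPARg-GAL4 receptor was assessed in transiently transfected HepG2 cells after 24 h of treatment. Reporter mRNA induction, detected fluorescently after RT-PCR, was analysed in the positive direction against DMSO.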
# [5] = system: turtle Thyroid Hormone Receptor, alpha (TRa), gene 101949057; experiment: ATG_trTRa_XSP2: Attagene TRANS-FACTORIAL Multi-Species (XSP1) HepG2 Assay for turtle Thyroid Hormone Receptor, alpha (TRa) (AID 2283834);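 also: hits raise reporter mRNA over the DMSO baseline so AC50 marks activators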
# Method in brief: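 Gain-of-signal reporter transcription measured in transiently transfected HepG2 at 24 h post-dose. Fluorescent RT-PCR products were resolved by capillary electrophoresis and compared with DMSO vehicle.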
# [6] = target: human Thyroid hormone Receptor alpha (TRa), THRA (gene 7067) (UniProt P10827); experiment: ATG_hTRa_XSP2: Attagene TRANS-FACTORIAL Multi-Species (XSP2) HepG2 Assay for human Thyroid hormone Receptor alpha (TRa) (AID 2283838)
# Method in brief: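 HepG2 cells were transiently transfected with GAL4-UAS reporter units for chimeric human TRa-Gal4 and dosed for 24 hours, with 3 nM 6-alpha-fluorotestosterone and 1.5 nM norgestrel present. Reporter mRNA was quantified by RT-PCR, FAM labelling and capillary electrophoresis, with gain of signal fitted versus DMSO.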
# [7] = target: Thyroid hormone receptor alpha (Rattus norvegicus) + Thyroid hormone receptor beta (Rattus norvegicus) (UniProt P18113+P63059); experiment: TOX21_TR_LUC_GH3_Agonist_Followup: Tox21 GH3 Thyroid Hormone Receptor Agonism Luciferase Follow-Up Assay (AID 2283939)
# Method in brief: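 Rat GH3 cells (1,500/well) in serum-free assay medium, treated with 15-point series, 92 uM to 5 nM final, for 24 h at 37C. Luciferase via ONE-Glo luminescence; gain of signal fitted against DMSO, T3 positive control.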
# [8] = ATG_XTT_Cytotoxicity_XSP2: Cytotoxicity Assessment in the Attagene TRANS-FACTORIAL Multi-Species (XSP2) HepG2 Assay (AID 2283837)
# Method in brief: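 HepG2 cells, transiently transfected with multiple reporter constructs, exposed to chemical for 24 h. Cell number assessed with XTT fluorescence read-out; loss of signal fitted relative to DMSO.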
# [9] = target: frog Thyroid hormone Receptor alpha (TRa), thra-a (gene 397942) (UniProt P15204); experiment: ATG_frTRa_XSP2: Attagene TRANS-FACTORIAL Multi-Species (XSP2) HepG2 Assay for frog Thyroid hormone Receptor alpha (TRa) (AID 2283839);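 as to AC50: AC50 reflects induction of frog TRa-driven reporter mRNA above DMSO baseline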
# Method in brief: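 Frog thyroid receptor alpha was tested as an exogenous NR-Gal4 fusion in transiently transfected HepG2 cells. After 24 h chemical treatment, reporter mRNA induction was quantified by RT-PCR and capillary electrophoresis, with gain-of-signal analysed relative to DMSO.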
# [10] = target: human Thyroid hormone Receptor beta (TRb), THRB (gene 7068) (UniProt P10828); experiment: ATG_hTRb_XSP2: Attagene TRANS-FACTORIAL Multi-Species (XSP2) HepG2 Assay for human Thyroid hormone Receptor beta (TRb) (AID 2283840);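 also: actives raise reporter mRNA so potency reflects agonist-like gain of signal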
# Method in brief: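 In this cell-based multiplex, HepG2 liver cells carrying transfected GAL4-UAS reporter constructs are exposed to chemical for 24 hours, then reporter transcripts are measured by RT-PCR with capillary electrophoresis, scored as gain of signal against DMSO.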
# [11] = TOX21_PR_LUC_Followup_Agonist_viability: Viability Assessment in the Tox21 HEK293 Progesterone Receptor (PR) Agonism Luciferase Follow-Up Assay (AID 2283941);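 also: loss of signal means cytotoxicity so actives lower viability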
# Method in brief: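 Cells were kept 5 days in charcoal-stripped serum medium before plating HEK293-PR-A-luc at 3,000 cells/well. After 5 h they received DMSO-dissolved compound and incubated 16 h at 37C. Viability was taken from CellTiter-Glo ATP luminescence.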
# [12] = ATG_M_61_XSP2: Attagene TRANS-FACTORIAL Multi-Species (XSP2) HepG2 Assay for M61 Transcription Factor (Internal Marker) (AID 2283835; active = hit-call score of the fitted dose curve at least 0.9, where 1 is the maximum; inactive = score below 0.9;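 also: reporter mRNA of an internal background marker read by RT-PCR and capillary electrophoresis; active means a rise in signal above the DMSO baseline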)
# Method in brief: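 HepG2 cells transiently transfected with multiple GAL4-UAS reporter units; 3 nM 6-alpha-fluorotestosterone and 1.5 nM norgestrel present to stimulate androgen receptor. After 24 h compound exposure, reporter mRNA measured by RT-PCR and capillary electrophoresis fluorescence, gain-of-signal versus DMSO baseline.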
# PGR (gene 5241) = PGR (gene 5241) (UniProt P06401); experiment: TOX21_PR_BLA_Followup_Agonist_ratio: Tox21 HEK293 Progesterone Receptor (PR) Agonism Beta-lactamase Follow-Up Assay, Ratio (AID 2283933)
# Method in brief: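 HEK293T PR-UAS-bla, 2% CS-FBS; 6 hr preincubation, cpd/DMSO pinned, 16 hr 37C/5% CO2; LiveBLAzer B/G 2 hr RT; FRET ch2/ch1 ratio, agonist direction vs DMSO. Viability by CellTiter-Glo in same wells.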
# [13] = TOX21_PR_LUC_Followup_Antagonist_viability: Viability Assessment in the Tox21 HEK293 Progesterone Receptor (PR) Antagonism Luciferase Follow-Up Assay (AID 2283940)
# Method in brief: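 Multiplexed viability counter-screen: after 5 days in charcoal-stripped-FBS medium, HEK293-PR-A-luc cells are plated, pinned with DMSO-dissolved compounds for 16 h at 37C, and ATP content is quantified luminescently via CellTiter-Glo.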
compound,measurement,setting,value
C[C@]12CC[C@H]3C(=CCc4cc(O)ccc43)[C@@H]1CCC2=O,AC50,[1],inconclusive: 18.6 nM
same,AC50,[2],inconclusive: 1000 nM
same,AC50,[3],inconclusive: 268 nM
same,AC50,[4],inconclusive: 0.0494 µM
same,outcome,[5],inactive
same,outcome,[6],inactive
same,AC50,[7],inconclusive: 71300 nM
CCCCCCCCCCCCc1ccc(O)cc1,AC50,[1],inconclusive: 1000 nM
same,AC50,[2],inconclusive: 1000 nM
same,AC50,[3],inconclusive: 1000 nM
same,outcome,[3],inactive
same,AC50,[4],inconclusive: 1 µM
same,AC50,[8],inconclusive: 1000 nM
same,AC50,[6],inconclusive: 13.2 nM and inconclusive: 1 µM
same,AC50,[9],inconclusive: 0.0914 nM and inconclusive: 17.5 nM
same,AC50,[10],inconclusive: 1 µM
COc1ccc(-c2coc3cc(O)cc(O)c3c2=O)cc1,AC50,[3],inconclusive: 86.4 nM
same,AC50,[4],inconclusive: 16.4 µM
same,outcome,[4],inactive
same,AC50,[11],inconclusive: 120 nM
CC[C@H](c1ccc(O)cc1)[C@@H](CC)c1ccc(O)cc1,AC50,[1],inconclusive: 0.061 nM
same,AC50,[2],inconclusive: 26.8 nM
same,AC50,[3],inconclusive: 100 nM
same,AC50,[4],inconclusive: 0.00167 µM
same,outcome,[5],inactive
same,outcome,[12],inactive
same,AC50,[6],inconclusive: 100 nM
same,outcome,[9],inactive
same,outcome,PGR (gene 5241),inactive
same,AC50,[13],inconclusive: 23000 nM
c1ccc(B(c2ccccc2)c2ccccc2)cc1,AC50,[1],active: 65.6 µM and active: 45.9 µM
same,outcome,[3],inactive
same,AC50,[4],active: 100 µM
same,outcome,[8],inactive
same,AC50,[10],inconclusive: 100 µM
same,outcome,[10],inactive
C#C[C@]1(O)CC[C@H]2[C@@H]3CCc4cc(OC)ccc4[C@H]3CC[C@@]21C,AC50,[1],inconclusive: 100 nM and inconclusive: 0.0892 nM
same,AC50,[2],inconclusive: 6.4 nM
same,outcome,[2],inactive
same,AC50,[3],inconclusive: 24.9 nM
same,AC50,[4],inconclusive: 48.8 nM and inconclusive: 100 nM
same,outcome,[5],inactive
same,AC50,[10],active: 26.2 nM and inconclusive: 100 nM
same,AC50,[13],inconclusive: 23000 nM
same,outcome,[11],inactive

# An excerpt of these results, bar-delimited:
compound | measurement | setting | value
COc1ccc(-c2coc3cc(O)cc(O)c3c2=O)cc1 | AC50 | [3] | inconclusive: 86.4 nM
same | AC50 | [4] | inconclusive: 16.4 µM
same | outcome | [4] | inactive
